Experimental data taken from PubChem BioAssay AID720535 (National Center for Advancing Translational Sciences (NCATS), 2013).
Shown are results outside the selection of hits, which stands elsewhere. Results filed as inconclusive are left out. The source made the active and inactive calls. The call rests on the fitted dose curve; in most records, active means well fitted inhibition curve with a large enough effect; inconclusive means small, poorly fitted or top-dose-only effect; inactive means flat fitted curve, though single readings scatter.

Test: qHTS for Inhibitors of TGF-b: Cytotox Counterscreen for Cherry Picks; further: nearly all actives have a fitted effect of over 70% in size
Settings: HepG2 CAGA-GFP viability, ATP luminescence, 18 h, cells stimulated with TGF-beta, 500 pg/mL; at 46.1 µM (top of the series)
Description: TGF-b is a main component in the TGF-b signaling pathway which plays diverse roles in cellular and development pathways. TGF-b is mediated by transcription factors called "Smads". Although the Smad-dependent pathway is the primary canonical TGF-b signaling mode, TGF-b1 can also activate alternative signaling pathways, including those involving MAPK (ERK, JNK and p38). This interaction may mediate or enhance Smad-dependent responses, or can exert Smad-independent effects. The complexity of this signaling cascade allows the TGF-b superfamily to perform unique, overlapping or redundant functions. […] We aim to identify Smad3-small molecule antagonists using a quantitative high throughput screening (qHTS) approach. […]
Suspensions of trypsinized HEPG2 CAGA-GFP cells were dispensed into white, tissue culture-treated, solid 1536-well plates at 5uL/well (1000 cells/well final concentration) in DMEM medium supplemented with 1% FBS. […] Two uL of CellTiter Glo (Promega), a luminescence-based viability reagent, was dispensed, followed by a 10 minute room temperature incubation. The plates were then measured on a PerkinElmer ViewLux plate reader for luminescence (clear filter) using a 5 second exposure. The %Activity was determined from the corrected luminescence values. […] Concentration-response curves were fitted to the signals arising from the resulting luminescence. […]
For COc1c(O)cc2c(c1OC)-c1ccc(SC)c(=O)cc1C(NC(C)=O)CC2 (stereo unspecified), the activity, negative = cytotoxicity was inactive: -4.76%.
